Laboratory results published in article PMC6614801.
Results are given in words; binding and its absence hold for the method and conditions named.

Protein sequences, listed by entry. Tags and fused reporters are not part of them.
UniProt P0AFG0: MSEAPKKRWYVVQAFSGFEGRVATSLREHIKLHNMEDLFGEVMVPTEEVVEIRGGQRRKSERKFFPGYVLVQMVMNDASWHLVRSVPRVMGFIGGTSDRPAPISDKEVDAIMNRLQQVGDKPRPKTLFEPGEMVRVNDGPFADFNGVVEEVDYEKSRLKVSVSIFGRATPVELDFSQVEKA
UniProt P0ADG4: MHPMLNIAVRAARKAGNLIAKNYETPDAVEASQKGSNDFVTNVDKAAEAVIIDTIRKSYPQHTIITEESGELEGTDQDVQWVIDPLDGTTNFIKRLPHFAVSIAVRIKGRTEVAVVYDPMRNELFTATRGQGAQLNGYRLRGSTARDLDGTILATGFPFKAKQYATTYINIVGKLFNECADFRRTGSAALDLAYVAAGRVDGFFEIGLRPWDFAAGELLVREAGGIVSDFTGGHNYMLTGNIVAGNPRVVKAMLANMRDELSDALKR

Key:
[1] = molecular target: NusA^ΔAR2 (NusA residues 1–426) (E. coli) (UniProt P0AFF6); experiment: condition: 20 μM largest component, 25 μM smaller components; SEC; analytical SEC of mixtures of proteins only; Superdex 200 Increase 3.2/300; 20 μM largest component, 25 μM all smaller components; 20 mM HEPES–NaOH pH 7.5, 50 mM NaCl, 1 mM DTT; incubated at room temperature for 15 min; fractions on SDS-PAGE; both purified
NusG (E. coli) = NusG (E. coli) (UniProt P0AFG0); experiment: as above

binding [1]: no binding | binding (NusG (E. coli)): no binding
Substance: SuhB (inositol mono-phosphatase SuhB), wild type (from UniProt P0ADG4 1-267)
